Among the data in US20260263615A1 (priority 2023, published 2026) are isolated mass values, retold here.

This data set can be described thus: Fmoc solid-phase peptide synthesis; 2-CTC resin; HATU/DIPEA. As to conditions: whole synthesis, scale 3.00 mmol, TFA salt.

For the substance “1-(9H-fluoren-9-yl)-4,7,10,13,16,19,22,25,28,31-decamethyl-3,6,9,12,15,18,21,24,27,30-decaoxo-2-oxa-4,7,10,13,16,19,22,25,28,31-decaazatritriacontan-33-oic acid”, the isolated mass worked out at 2856 mg.
